{"source": "patent US10183027B2", "about": "“Lanthanide toolbox for multi-modal, non-invasive tumor specific theranostic prodrugs” (priority 2016, dated 2019)", "key": {"[1]": {"test": "NMRD relaxivity profiles (fast-field-cycling relaxometer)", "assay_type": "physicochemical", "settings": "10 MHz, 25° C."}, "[2]": {"test": "T1 relaxation / r1 relaxivity at 3T (Philips Achieva scanner)", "assay_type": "physicochemical"}}, "data": [{"smiles": "O.O=C([O-])CN1CCN(CC(=O)[O-])CCN(Cc2cc(C#Cc3ccc(NC(=O)c4ccncc4)cc3)ccn2)CCN(CC(=O)[O-])CC1.[Gd+3]", "note": "[GdL]", "values": [{"measurement": "r1, T1 relaxivity", "setting": "[1]", "value": 23.1, "unit": "mM⁻¹ s⁻¹"}]}, {"smiles": "O.O=[N+]([O-])[O-].[Gd+3].[NH3+][Pt-2]([NH3+])([Cl])[n+]1ccc(C(=O)Nc2ccc(C#Cc3ccnc(CN4CCN(CC(=O)[O-])CCN(CC(=O)[O-])CCN(CC(=O)[O-])CC4)c3)cc2)cc1", "note": "[PtGdL]", "values": [{"measurement": "R1 = 1/T1", "setting": "[2]; 1.07E−04 mol/L", "value": 3.1, "unit": "s⁻¹"}, {"measurement": "T1 average", "setting": "[2]; 1.07E−04 mol/L", "value": 324.5, "unit": "ms"}, {"measurement": "T1 slice 1", "setting": "[2]; 1.07E−04 mol/L", "value": 373, "unit": "ms"}, {"measurement": "T1 slice 2", "setting": "[2]; 1.07E−04 mol/L", "value": 276, "unit": "ms"}, {"measurement": "R1 = 1/T1", "setting": "[2]; 1.07E−05 mol/L", "value": 0.5, "unit": "s⁻¹"}, {"measurement": "T1 average", "setting": "[2]; 1.07E−05 mol/L", "value": 1829.5, "unit": "ms"}, {"measurement": "T1 slice 1", "setting": "[2]; 1.07E−05 mol/L", "value": 1960, "unit": "ms"}, {"measurement": "T1 slice 2", "setting": "[2]; 1.07E−05 mol/L", "value": 1699, "unit": "ms"}, {"measurement": "R1 = 1/T1", "setting": "[2]; 2.68E−05 mol/L", "value": 0.9, "unit": "s⁻¹"}, {"measurement": "T1 average", "setting": "[2]; 2.68E−05 mol/L", "value": 1170.5, "unit": "ms"}, {"measurement": "T1 slice 1", "setting": "[2]; 2.68E−05 mol/L", "value": 1231, "unit": "ms"}, {"measurement": "T1 slice 2", "setting": "[2]; 2.68E−05 mol/L", "value": 1110, "unit": "ms"}, {"measurement": "R1 = 1/T1", "setting": "[2]; 5.36E−05 mol/L", "value": 1.2, "unit": "s⁻¹"}, {"measurement": "T1 average", "setting": "[2]; 5.36E−05 mol/L", "value": 864.5, "unit": "ms"}, {"measurement": "T1 slice 1", "setting": "[2]; 5.36E−05 mol/L", "value": 917, "unit": "ms"}, {"measurement": "T1 slice 2", "setting": "[2]; 5.36E−05 mol/L", "value": 812, "unit": "ms"}, {"measurement": "R1 = 1/T1", "setting": "[2]; 5.36E−06 mol/L", "value": 0.5, "unit": "s⁻¹"}, {"measurement": "T1 average", "setting": "[2]; 5.36E−06 mol/L", "value": 2012.5, "unit": "ms"}, {"measurement": "T1 slice 1", "setting": "[2]; 5.36E−06 mol/L", "value": 2092, "unit": "ms"}, {"measurement": "T1 slice 2", "setting": "[2]; 5.36E−06 mol/L", "value": 1933, "unit": "ms"}, {"measurement": "r1 relaxivity", "setting": "[2]; aqueous solution, linear fit of R1 vs concentration", "value": 24.4, "unit": "mM⁻¹ s⁻¹"}, {"measurement": "r1, T1 relaxivity", "setting": "[1]", "value": 29.4, "unit": "mM⁻¹ s⁻¹"}]}]}
